# Patent publication US20210002611A1, “IMPROVED ALPHA-BETA T PROCESSED CELL PRODUCTION METHOD” (OSAKA UNIVERSITY, priority 2018, published 2021)
# System: sugar chains of αβ T processed cells
# Assay: LC-MS mass spectrometry analysis of sugar chains on cell surface
# Assay type: cell-based, human
# Conditions: cells cultured with 2 mM 2DG
# Excerpt: From the αβ T processed cells, sugar chains were purified and labeled by using BlotGlyco (Sumitomo Bakelite Co., Ltd.), and then the purified and labeled sugar chains were subjected to LC-MS mass spectrometry analysis (FIG. 5A).
structure (smiles),measurement,value
"OCC1O[C@H](O)C[C@@H](O)[C@@H]1O (mixture of isomers) [2DG, 2-deoxy-d-glucose]","Amount of sugar chains per cell, peak 6 (Hex)2(HexNAc)2(Deoxyhexose)1(Sulph)1 + (Man)3(GlcNAc)2",606 fmol
